Experimental data reported in patent US20020052365A1, “Selective anxiolytic therapeutic agents” (priority 2000, published 2002).

Tested on: wild type, α2(H101R) and α3(H126R) mice
Settings: wild type mice, fixed 2 rpm, diazepam 3, 10, 30 mg/kg p.o.
Source text: Female wild-type and mutant mice were raised in the test rooms and behaviorally tested during the dark period of the 1 2-hr light/dark cycle.

With `CN1C(=O)CN=C(c2ccccc2)c2cc(Cl)ccc21` [diazepam] the “latency to fall off the rotating rod (motor impairment)” value was “Dose-dependent decrease in the latency to fall off the rotating rod”.
